Residues, ends and D or L forms follow the SMILES beside them.

Sequences of proteins named here, by UniProt entry; tags and fusion partners are left off. A change or cut given only in a name is not applied to a line headed by its entry.
UniProt P11006: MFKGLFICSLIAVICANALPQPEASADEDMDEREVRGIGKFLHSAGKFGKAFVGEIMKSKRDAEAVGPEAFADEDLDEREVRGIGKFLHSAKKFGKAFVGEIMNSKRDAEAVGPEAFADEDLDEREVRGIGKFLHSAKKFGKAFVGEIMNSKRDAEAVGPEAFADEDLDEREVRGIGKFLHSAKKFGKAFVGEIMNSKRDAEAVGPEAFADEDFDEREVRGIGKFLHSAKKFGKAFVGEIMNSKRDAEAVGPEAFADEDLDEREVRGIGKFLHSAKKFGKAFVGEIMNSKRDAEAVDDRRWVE
UniProt P37362: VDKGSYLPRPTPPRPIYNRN

This data set has as its system red blood cells (erythrocytes). As to the kind of experiment: Hemolytic activity of the peptides (hemoglobin release, absorbance at 412 nm). As to conditions: difference between mean of hemolysis and mean of activity; closest to zero is optimal. The data set is classed as cell-based. The method, then:
Hemolysis as defined herein is an in vitro assay where the compounds tendency to lyse red blood cells is determined. Presumably, the compounds that are less hemolytic will be less toxic in vivo. Increasing amounts of compound are added to solutions containing red blood cells and left for a specified time and then lysis is determined spectrophotometrically by measuring hemoglobin release.
A small volume of a suspension of erythrocytes (about 100 million) is kept on ice with a specific amount of lytic peptide. The cells are then placed in a 37° C. water bath for 10 min, vortexed and centrifuged at 1000 g for 2 min. The supernatant was removed and the amount of hemoglobin that was released was determined by the samples' absorbance at 412 nm. Control values without added peptide were subtracted from the absorbance readings.
The numerical difference between the value of the mean of hemolysis and the mean of the activity is a useful way to determine those peptides having the most desired activity.
Consider “KWCFRVCYRGICYRRCR [TP, defensin-like peptide found in the hemolymph of the horseshoe crab]”, for which the “Mean Difference” value is −2.88.

Magainin II: the “Mean Difference” value is 28.47.

Regarding Cecropin A, the “Mean Difference” value turned out to be 2.29.

As for “Magainin I: Magainins: 23 amino acids in length, derived from the African Clawed Frog (GIGKFLHSAGKFGKAFVGEIMKS; Magainin-1; UniProt P11006 37-59, looked up)”, the “Mean Difference” value was found to be 28.41.

As to “FKLRAKIKVRLRAKIKL [D4E1, D4E1 (AgroMed), earlier synthetic lytic peptide tested by a number of labs]”, the “Mean Difference” value is given as −2.76.

`CC[C@H](C)[C@H](NC(=O)[C@H](CCCNC(=N)N)NC(=O)[C@@H]1CCCN1C(=O)[C@H](Cc1cnc[nH]1)NC(=O)[C@@H]1CCCN1C(=O)[C@@H]1CCCN1C(=O)[C@H](CCCNC(=N)N)NC(=O)[C@@H]1CCCN1C(=O)[C@H](CCC(N)=O)NC(=O)[C@@H]1CCCN1C(=O)[C@@H](NC(=O)[C@H](Cc1ccc(O)cc1)NC(=O)[C@@H](NC(=O)[C@@H]1CCCN1C(=O)[C@H](CCCNC(=N)N)NC(=O)[C@H](CC(N)=O)NC(=O)[C@H](CC(N)=O)NC(=O)CN)C(C)C)[C@@H](C)CC)C(=O)O` [Apidaecin IA] (H-GNNRPVYIPQPRPPHPRI-OH): the “Mean Difference” value is given as 19.06.

`CC[C@H](C)[C@H](NC(=O)CN)C(=O)NCC(=O)N[C@@H](C)C(=O)N[C@H](C(=O)N[C@@H](CC(C)C)C(=O)N[C@@H](CCCCN)C(=O)N[C@H](C(=O)N[C@@H](CC(C)C)C(=O)N[C@H](C(=O)N[C@H](C(=O)NCC(=O)N[C@@H](CC(C)C)C(=O)N1CCC[C@H]1C(=O)N[C@@H](C)C(=O)N[C@@H](CC(C)C)C(=O)N[C@H](C(=O)N[C@@H](CO)C(=O)N[C@@H](Cc1c[nH]c2ccccc12)C(=O)N[C@H](C(=O)N[C@@H](CCCCN)C(=O)N[C@@H](CCCNC(=N)N)C(=O)N[C@@H](CCCCN)C(=O)N[C@@H](CCCNC(=N)N)C(=O)N[C@@H](CCC(N)=O)C(=O)N[C@@H](CCC(N)=O)C(N)=O)[C@@H](C)CC)[C@@H](C)CC)[C@@H](C)O)[C@@H](C)O)C(C)C)C(C)C` [Melittin]: the “Mean Difference” value was −96.59.

For the compound “Pyrrhocoricin (H): naturally derived molecule tested for comparative purposes (VDKGSYLPRPTPPRPIYNRN; UniProt P37362 1-20, looked up)”, the “Mean Difference” value was determined as 24.94.

On to Histatin-5, for which the “Mean Difference” value is on record as 28.25.

For `CC[C@H](C)[C@H](NC(=O)[C@@H]1CCCN1C(=O)[C@H](CCCNC(=N)N)NC(=O)[C@@H]1CCCN1C(=O)[C@H](Cc1cnc[nH]1)NC(=O)[C@H](CO)NC(=O)[C@@H](NC(=O)[C@@H]1CCCN1C(=O)[C@H](CCCNC(=N)N)NC(=O)[C@@H]1CCCN1C(=O)[C@H](CO)NC(=O)[C@H](Cc1ccc(O)cc1)NC(=O)[C@@H]1CCCN1C(=O)[C@H](CCCNC(=N)N)NC(=O)[C@@H]1CCCN1C(=O)[C@H](CCCCN)NC(=O)CN)[C@@H](C)O)C(=O)N[C@@H](CCCNC(=N)N)C(=O)N[C@H](C(=O)O)C(C)C` [Drosocin] (H-GKPRPYSPRPTSHPRPIRV-OH), the “Mean Difference” value is given as 19.31.

“Pyrrhocoricin (D): naturally derived molecule tested for comparative purposes (VDKGSYLPRPTPPRPIYNRN; UniProt P37362 1-20, looked up)”: the “Mean Difference” value is listed as 21.63.

Take LL-37: the “Mean Difference” value is −4.29.

Consider Indolicidin, for which the “Mean Difference” value was determined as 3.41.
